Assay results: the supplement of paper PMC10849652
Some of the results follow.

The chains behind the UniProt entries cited, without tags or fusion partners. Where a name states a change or a piece, a line headed by the entry shows the natural chain unless it says otherwise.
UniProt Q9H0E9, whole entry, looked up: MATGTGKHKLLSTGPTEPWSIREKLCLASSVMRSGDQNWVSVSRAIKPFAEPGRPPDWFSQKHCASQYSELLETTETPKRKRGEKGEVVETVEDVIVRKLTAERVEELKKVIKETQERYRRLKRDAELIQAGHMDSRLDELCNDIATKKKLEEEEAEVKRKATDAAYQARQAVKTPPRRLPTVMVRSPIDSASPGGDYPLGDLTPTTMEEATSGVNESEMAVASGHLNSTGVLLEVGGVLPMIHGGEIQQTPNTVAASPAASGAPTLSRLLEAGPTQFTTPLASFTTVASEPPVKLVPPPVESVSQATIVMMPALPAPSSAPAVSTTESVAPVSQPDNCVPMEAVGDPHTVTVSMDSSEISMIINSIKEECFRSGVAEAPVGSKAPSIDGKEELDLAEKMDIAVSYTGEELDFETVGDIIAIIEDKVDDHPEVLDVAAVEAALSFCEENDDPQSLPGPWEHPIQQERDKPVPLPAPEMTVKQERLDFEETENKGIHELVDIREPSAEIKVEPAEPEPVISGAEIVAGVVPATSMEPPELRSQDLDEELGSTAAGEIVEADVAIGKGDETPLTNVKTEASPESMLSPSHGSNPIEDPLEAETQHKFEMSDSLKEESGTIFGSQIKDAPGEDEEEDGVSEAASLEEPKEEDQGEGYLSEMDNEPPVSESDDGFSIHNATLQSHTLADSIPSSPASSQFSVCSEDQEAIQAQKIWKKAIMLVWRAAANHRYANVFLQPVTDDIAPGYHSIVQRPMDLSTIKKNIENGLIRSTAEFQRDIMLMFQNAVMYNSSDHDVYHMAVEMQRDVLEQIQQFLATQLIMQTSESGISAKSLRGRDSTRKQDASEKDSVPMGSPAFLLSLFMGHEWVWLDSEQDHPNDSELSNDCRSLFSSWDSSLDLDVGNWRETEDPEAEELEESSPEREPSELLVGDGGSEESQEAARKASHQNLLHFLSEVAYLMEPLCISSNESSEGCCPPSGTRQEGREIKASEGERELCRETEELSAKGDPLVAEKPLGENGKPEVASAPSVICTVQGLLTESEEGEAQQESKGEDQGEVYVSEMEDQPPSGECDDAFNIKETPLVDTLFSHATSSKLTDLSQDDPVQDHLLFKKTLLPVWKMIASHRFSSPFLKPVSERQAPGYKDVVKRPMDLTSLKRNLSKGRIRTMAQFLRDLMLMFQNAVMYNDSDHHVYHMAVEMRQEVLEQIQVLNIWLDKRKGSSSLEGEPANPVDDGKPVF
UniProt Q99933: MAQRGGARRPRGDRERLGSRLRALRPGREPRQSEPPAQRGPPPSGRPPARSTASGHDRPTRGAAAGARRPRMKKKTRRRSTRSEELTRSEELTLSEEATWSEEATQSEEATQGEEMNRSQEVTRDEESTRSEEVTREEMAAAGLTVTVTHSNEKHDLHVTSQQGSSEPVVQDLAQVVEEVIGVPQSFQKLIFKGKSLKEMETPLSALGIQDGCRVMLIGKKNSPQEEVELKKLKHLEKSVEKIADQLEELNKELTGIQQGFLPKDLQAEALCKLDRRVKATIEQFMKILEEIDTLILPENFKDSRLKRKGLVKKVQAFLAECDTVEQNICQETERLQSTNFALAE
UniProt Q9BQE9, whole entry, looked up: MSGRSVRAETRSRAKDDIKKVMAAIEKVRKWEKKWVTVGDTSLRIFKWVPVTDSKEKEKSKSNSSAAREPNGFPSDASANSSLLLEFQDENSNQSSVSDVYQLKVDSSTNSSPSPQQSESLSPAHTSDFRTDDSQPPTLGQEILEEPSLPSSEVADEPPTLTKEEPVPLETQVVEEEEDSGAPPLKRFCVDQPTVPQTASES
UniProt Q8TDH9: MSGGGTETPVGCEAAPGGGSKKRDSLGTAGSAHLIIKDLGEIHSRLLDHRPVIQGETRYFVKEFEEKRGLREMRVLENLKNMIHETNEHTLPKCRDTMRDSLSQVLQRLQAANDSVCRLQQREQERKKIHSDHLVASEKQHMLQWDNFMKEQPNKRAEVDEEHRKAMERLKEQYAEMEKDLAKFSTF
UniProt Q9UL15: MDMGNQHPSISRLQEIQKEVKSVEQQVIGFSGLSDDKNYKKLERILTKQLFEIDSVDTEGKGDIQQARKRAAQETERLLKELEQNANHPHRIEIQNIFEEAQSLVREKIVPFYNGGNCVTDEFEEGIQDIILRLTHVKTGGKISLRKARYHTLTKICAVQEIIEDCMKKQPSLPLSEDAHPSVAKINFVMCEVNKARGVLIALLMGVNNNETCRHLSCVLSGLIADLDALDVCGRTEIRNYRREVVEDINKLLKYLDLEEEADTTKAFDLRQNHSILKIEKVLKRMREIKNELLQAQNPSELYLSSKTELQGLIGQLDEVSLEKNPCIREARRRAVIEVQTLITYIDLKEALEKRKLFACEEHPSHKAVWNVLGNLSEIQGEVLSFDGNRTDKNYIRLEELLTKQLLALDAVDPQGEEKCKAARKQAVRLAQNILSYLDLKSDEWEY
UniProt Q92843: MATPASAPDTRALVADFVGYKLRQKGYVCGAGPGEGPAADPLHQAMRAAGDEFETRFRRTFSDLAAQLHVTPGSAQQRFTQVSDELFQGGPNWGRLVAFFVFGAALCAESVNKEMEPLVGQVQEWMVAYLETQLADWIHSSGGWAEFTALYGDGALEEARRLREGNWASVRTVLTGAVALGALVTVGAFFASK
UniProt Q8TDN6: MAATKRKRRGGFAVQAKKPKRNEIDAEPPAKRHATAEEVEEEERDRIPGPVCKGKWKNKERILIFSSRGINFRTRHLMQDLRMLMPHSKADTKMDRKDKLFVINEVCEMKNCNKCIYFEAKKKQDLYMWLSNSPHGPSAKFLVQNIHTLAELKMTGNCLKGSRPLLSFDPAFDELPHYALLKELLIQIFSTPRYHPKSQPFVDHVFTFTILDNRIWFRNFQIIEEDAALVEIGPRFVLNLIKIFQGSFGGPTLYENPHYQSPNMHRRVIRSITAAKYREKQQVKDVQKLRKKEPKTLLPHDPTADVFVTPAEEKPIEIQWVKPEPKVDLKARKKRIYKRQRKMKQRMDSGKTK
UniProt Q96KE9: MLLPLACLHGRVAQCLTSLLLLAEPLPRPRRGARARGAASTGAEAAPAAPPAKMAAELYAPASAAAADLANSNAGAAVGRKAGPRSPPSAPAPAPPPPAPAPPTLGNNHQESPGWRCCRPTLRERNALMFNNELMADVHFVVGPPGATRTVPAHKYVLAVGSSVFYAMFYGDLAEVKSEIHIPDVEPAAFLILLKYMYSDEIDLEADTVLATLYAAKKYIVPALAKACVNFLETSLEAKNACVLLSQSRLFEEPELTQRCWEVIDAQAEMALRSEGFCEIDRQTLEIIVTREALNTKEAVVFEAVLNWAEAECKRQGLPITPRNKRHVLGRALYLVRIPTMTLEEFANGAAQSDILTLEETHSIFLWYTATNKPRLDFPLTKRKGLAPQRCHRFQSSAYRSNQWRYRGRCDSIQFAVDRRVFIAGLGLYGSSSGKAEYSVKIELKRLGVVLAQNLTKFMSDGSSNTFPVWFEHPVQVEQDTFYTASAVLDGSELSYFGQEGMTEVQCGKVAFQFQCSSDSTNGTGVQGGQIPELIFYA
UniProt Q86WA6: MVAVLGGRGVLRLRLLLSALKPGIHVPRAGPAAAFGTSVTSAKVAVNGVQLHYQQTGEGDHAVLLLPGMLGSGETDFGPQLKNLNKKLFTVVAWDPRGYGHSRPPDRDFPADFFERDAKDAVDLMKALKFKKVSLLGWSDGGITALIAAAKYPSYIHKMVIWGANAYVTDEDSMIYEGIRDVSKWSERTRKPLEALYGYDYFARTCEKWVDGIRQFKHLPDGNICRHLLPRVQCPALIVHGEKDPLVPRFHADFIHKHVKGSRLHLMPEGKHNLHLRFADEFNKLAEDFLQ
UniProt O15392, whole entry, looked up: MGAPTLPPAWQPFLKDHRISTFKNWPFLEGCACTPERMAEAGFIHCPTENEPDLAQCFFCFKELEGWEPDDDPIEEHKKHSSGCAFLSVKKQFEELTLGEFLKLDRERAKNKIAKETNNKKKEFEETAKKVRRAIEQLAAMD
UniProt O95816: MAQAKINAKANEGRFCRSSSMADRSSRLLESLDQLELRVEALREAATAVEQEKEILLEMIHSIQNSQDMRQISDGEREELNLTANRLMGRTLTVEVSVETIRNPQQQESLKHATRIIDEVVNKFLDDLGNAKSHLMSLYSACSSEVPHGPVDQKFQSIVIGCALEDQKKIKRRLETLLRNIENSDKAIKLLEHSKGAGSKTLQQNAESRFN
UniProt Q99728: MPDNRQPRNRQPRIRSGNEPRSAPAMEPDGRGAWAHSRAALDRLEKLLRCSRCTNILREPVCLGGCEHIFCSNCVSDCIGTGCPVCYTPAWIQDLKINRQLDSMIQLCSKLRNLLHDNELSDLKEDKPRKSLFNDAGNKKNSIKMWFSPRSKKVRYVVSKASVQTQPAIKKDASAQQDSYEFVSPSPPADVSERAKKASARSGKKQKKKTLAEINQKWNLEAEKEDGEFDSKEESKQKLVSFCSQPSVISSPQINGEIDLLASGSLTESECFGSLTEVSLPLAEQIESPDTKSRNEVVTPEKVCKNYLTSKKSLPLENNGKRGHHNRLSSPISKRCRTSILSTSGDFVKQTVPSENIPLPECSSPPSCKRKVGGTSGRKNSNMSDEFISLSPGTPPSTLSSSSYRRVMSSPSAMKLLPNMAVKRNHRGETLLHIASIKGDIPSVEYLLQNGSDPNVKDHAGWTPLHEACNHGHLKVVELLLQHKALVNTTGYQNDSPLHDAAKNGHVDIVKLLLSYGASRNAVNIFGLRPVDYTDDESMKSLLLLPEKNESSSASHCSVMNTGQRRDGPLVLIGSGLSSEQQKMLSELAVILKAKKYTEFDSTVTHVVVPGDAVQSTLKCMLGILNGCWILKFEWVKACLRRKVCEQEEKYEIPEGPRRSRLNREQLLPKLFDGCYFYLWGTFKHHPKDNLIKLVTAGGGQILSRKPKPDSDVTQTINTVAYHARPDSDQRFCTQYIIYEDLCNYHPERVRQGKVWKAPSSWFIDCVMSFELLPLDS
UniProt P35613: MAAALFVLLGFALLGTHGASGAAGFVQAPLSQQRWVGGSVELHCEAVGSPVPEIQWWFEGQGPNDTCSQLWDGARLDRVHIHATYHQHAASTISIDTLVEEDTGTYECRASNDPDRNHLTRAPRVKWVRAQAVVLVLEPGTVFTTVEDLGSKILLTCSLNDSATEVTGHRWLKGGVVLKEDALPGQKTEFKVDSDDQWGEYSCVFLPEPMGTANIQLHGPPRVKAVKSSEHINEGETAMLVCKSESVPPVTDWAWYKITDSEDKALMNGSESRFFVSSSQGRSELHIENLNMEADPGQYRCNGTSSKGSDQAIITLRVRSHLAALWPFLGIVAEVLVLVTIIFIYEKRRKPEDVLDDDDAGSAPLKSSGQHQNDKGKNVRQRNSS
UniProt P21953: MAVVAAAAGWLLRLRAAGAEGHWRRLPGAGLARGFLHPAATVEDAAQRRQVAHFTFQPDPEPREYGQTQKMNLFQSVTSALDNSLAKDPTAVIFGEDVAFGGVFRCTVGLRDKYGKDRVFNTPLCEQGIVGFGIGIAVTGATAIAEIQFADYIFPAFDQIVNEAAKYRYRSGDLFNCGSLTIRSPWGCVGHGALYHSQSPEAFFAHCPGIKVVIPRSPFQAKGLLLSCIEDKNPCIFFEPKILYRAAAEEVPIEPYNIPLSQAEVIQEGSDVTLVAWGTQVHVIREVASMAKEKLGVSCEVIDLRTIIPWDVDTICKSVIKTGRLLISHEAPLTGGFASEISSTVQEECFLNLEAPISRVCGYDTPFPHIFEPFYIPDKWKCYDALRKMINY
UniProt P55957: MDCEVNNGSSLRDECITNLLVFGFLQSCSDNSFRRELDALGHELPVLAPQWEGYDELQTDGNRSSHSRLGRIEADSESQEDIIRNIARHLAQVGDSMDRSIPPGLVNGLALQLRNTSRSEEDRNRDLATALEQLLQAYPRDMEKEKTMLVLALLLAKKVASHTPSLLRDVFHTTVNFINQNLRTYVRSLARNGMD
UniProt Q9BXK5, whole entry, looked up: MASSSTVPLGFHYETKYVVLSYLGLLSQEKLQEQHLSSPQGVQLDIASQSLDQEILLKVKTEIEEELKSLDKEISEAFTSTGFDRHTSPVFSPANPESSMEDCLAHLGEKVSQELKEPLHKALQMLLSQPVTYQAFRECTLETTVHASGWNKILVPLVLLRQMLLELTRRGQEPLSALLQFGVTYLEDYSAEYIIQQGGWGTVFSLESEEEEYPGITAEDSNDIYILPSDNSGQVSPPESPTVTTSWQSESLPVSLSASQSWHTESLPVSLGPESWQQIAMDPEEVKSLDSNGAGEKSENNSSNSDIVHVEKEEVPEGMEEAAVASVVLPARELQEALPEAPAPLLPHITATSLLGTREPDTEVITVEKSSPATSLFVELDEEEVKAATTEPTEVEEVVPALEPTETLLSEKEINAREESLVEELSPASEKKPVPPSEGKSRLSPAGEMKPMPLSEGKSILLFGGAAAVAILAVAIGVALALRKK
UniProt Q6QNY0: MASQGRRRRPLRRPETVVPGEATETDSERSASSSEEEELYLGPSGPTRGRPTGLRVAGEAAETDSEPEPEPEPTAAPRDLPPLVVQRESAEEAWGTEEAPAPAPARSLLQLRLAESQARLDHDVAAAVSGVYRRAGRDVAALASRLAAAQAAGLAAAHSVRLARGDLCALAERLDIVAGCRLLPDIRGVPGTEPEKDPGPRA

compound: C1=CC=C(C=C1)C2=NC(=C(N2)C3=CC=NC=C3)C4=CC(=C(C=C4)Cl)O; assay: log2 fold change, soluble protein after heating vs DMSO (PISA); higher = thermal stabilisation; K562 lysate, 10 uM; active = over 0.2 and 3.5 SD of the protein, either way, in both replicates (recomputed)
Summary of the method: (§1)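 Quantification was by TMTpro 16plex LC-MS/MS with equalised channel sums, applied to the supernatant after 21,000xg for 90 min. Samples were crude K562 extract at 1 mg/mL protein in PBS pH 7.4 with 1 mM MgCl2, treated with 10 μM compound for 30 min, heated for 3 min across 48°C-58°C, pooled and brought to 0.5% NP-40 at 4°C. Values are log-two fold changes in thermal stability relative to solvent controls, from duplicates.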

log2 fold change, inactive:
BRD8 isoform 2 (UniProt Q9H0E9) 0.009, BAIAP2 (UniProt Q9UQB8) 0.011, BAG6 isoform 3 (UniProt P46379) -0.011, BPTF (UniProt Q12830) 0.001, BAG1 (UniProt Q99933) 0.006, BCL7B (UniProt Q9BQE9) 0.036, BCLAF1 (UniProt Q9NYF8) 0.017, BLOC1S5 (UniProt Q8TDH9) 0.024, BTN2A1 (UniProt Q7KYR7) 0.01, BAG5 isoform 2 (UniProt Q9UL15) -0.001, BCL2L2 isoform 2 (UniProt Q92843) 0.019, BRCA1 isoform 7 (UniProt P38398) -0.009, BRIX1 (UniProt Q8TDN6) 0.033, BCL7C isoform 2 (UniProt Q8WUZ0) 0.02, BTBD6 (UniProt Q96KE9) 0.114, BCOR (UniProt Q6W2J9) -0.032, BORCS5 (UniProt Q969J3) -0.017, BPHL (UniProt Q86WA6) -0.071, BET1 (UniProt O15155) 0.033, BNIP2 (UniProt J3KN59) -0.025, BORCS6 (UniProt Q96GS4) 0.036, BIRC5 (UniProt O15392) 0.153, BCAR1 isoform 6 (UniProt P56945) 0.019, BAG2 (UniProt O95816) -0.003, BARD1 (UniProt Q99728) 0.077, BTAF1 (UniProt O14981) 0.002, BSG (UniProt P35613) -0.008, BCAS2 (UniProt O75934) 0.034, BCKDHB (UniProt P21953) -0.098, BTF3L4 (UniProt Q96K17) -0.011, BID isoform 2 (UniProt P55957) 0.01, BCL2L13 (UniProt Q9BXK5) -0.027, BCKDK (UniProt O14874) -0.053, BLOC1S3 (UniProt Q6QNY0) -0.014

compound: C1=CC=C2C(=C1)C3=NNC4=CC=CC(=C43)C2=O; assay: as above
Summary of the method: as §1

log2 fold change, inactive:
BRD8 isoform 2 (UniProt Q9H0E9) -0.007, BAIAP2 (UniProt Q9UQB8) 0, BAG6 isoform 3 (UniProt P46379) 0.034, BPTF (UniProt Q12830) -0.048, BAG1 (UniProt Q99933) 0.11, BCL7B (UniProt Q9BQE9) 0.132, BCLAF1 (UniProt Q9NYF8) 0, BLOC1S5 (UniProt Q8TDH9) 0.008, BTN2A1 (UniProt Q7KYR7) -0.189, BAG5 isoform 2 (UniProt Q9UL15) 0.027, BCL2L2 isoform 2 (UniProt Q92843) 0.016, BRCA1 isoform 7 (UniProt P38398) -0.009, BRIX1 (UniProt Q8TDN6) 0.07, BCL7C isoform 2 (UniProt Q8WUZ0) -0.043, BTBD6 (UniProt Q96KE9) -0.168, BCOR (UniProt Q6W2J9) 0.01, BORCS5 (UniProt Q969J3) -0.012, BPHL (UniProt Q86WA6) 0.118, BET1 (UniProt O15155) -0.015, BNIP2 (UniProt J3KN59) 0.02, BORCS6 (UniProt Q96GS4) 0.022, BIRC5 (UniProt O15392) 0.063, BCAR1 isoform 6 (UniProt P56945) -0.063, BAG2 (UniProt O95816) -0.034, BARD1 (UniProt Q99728) 0.049, BTAF1 (UniProt O14981) 0.002, BSG (UniProt P35613) 0.001, BCAS2 (UniProt O75934) -0.007, BCKDHB (UniProt P21953) -0.117, BTF3L4 (UniProt Q96K17) 0.045, BID isoform 2 (UniProt P55957) -0.007, BCL2L13 (UniProt Q9BXK5) -0.099, BCKDK (UniProt O14874) 0.01, BLOC1S3 (UniProt Q6QNY0) 0.002
